Assay results reported in article PMC3470869.
Results are given in words; binding and its absence hold for the method and conditions named. In cells and extracts the contact can be indirect. Some binding calls cover weakened binding; strength is not graded here.

Sequences of proteins named here, by UniProt entry; tags and fusion partners are left off.
UniProt P32121: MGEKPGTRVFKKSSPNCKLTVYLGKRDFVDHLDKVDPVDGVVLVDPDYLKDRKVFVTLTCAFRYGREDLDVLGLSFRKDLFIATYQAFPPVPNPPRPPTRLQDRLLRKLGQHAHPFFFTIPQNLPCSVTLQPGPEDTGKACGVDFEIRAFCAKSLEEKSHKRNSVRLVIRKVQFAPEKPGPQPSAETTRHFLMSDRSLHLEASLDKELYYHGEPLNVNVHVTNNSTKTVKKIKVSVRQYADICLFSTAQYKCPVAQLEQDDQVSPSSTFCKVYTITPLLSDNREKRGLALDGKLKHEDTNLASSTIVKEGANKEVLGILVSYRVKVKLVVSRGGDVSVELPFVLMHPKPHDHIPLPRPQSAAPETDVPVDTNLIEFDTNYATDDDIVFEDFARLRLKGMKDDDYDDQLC
UniProt Q9HAU4: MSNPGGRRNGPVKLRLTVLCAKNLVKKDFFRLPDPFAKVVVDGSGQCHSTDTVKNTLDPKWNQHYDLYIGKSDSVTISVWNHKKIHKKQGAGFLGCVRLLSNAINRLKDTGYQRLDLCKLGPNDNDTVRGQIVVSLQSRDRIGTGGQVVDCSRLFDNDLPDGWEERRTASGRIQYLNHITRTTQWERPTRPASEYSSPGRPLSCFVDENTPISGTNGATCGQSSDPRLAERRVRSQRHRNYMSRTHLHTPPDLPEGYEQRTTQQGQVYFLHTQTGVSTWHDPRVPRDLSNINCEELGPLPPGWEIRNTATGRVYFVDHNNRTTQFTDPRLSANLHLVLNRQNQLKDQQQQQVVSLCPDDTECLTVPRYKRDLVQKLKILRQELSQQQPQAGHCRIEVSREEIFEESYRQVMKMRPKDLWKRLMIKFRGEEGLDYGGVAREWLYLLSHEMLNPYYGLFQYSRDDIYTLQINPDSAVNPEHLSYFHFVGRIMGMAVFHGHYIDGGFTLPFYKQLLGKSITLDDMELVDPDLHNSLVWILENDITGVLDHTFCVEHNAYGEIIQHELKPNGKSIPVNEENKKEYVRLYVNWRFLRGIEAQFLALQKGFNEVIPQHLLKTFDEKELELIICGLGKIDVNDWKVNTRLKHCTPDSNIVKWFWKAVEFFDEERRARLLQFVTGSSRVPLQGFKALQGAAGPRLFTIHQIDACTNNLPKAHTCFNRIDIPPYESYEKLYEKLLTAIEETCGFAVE

Molecular target: HA-Arrestin3 (UniProt P32121)
Test: co-IP; cells transiently transfected with myc-Smurf2 and HA-Arrestin3 (or pCDNA 3.0), lysed in IP buffer with protease inhibitors; legend: immunoprecipitated with HA antibody, immunoblotted for myc (methods: anti-myc 9E10 overnight, protein A/G beads, probed with anti-HA)

Substance: myc-Smurf2 (from UniProt Q9HAU4 1-748) (enzyme)
- binding: binds
